Results published in patent US20090162308A1, “USE OF 2,4'-DIMETHYLPROPIOPHENONE AS A FRAGRANCE SUBSTANCE” (SYMRISE GmbH & Co. KG, priority 2007, published 2009).
Like-named read-outs stand apart in the source and are kept apart here.

What was measured:
[1] = perfume description from literature (S. Arctander, Perfume and Flavor Chemicals); cited from earlier work
[2] = Substantivity/retention performance test on hair strands washed with shampoo (panel odor assessment); settings: panel scale 0-6, 6 best possible evaluation
[3] = Impact from the fragrance strip (sensory panel); settings: scale 1-9, 9 best possible evaluation
[4] = Odor threshold value from diethyl phthalate (sensory panel); settings: scale 1-13, 13 best possible evaluation
Odor description = settings: applicant's own description
[5] = Intensity on air (sensory panel); settings: scale 1-9, 9 best possible evaluation

CC(=O)c1ccc(CC(C)C)cc1 [p-isobutylacetophenone]
odor [1]: woody-hay-like note and high adherence

Cc1ccc(C(=O)C(C)C)cc1 [2,4′-dimethylpropiophenone]
Odor assessment of hair strand after shampoo wash ([2]; Damp hair): 2.6
Odor assessment of hair strand after shampoo wash ([2]; Dry hair): 1.9
Impact (from the fragrance strip) [3]: 5
Odor threshold value (from diethyl phthalate) [4]: 4
odor (Odor description): expressive rose oxide-like and herbal-like odor
Intensity (on air) [5]: 6

CC(=O)c1ccc(C)cc1 [p-methylacetophenone]
odor [1]: floral odor of mimosa, cumarin und bitter almond

CCc1ccc(C(C)=O)cc1 [p-ethylacetophenone]
odor [1]: sweet, warm, pungent floral odor with a herbal-balsamic undertone

Cc1cccc(C(=O)C(C)C)c1 [2,3′-dimethylpropiophenone (meta), 2,3′-dimethylpropiophenone]
odor (Odor description): weaker than para and ortho, rosy, technical-grade

CC(=O)c1ccc(C(C)C)cc1 [p-isopropylacetophenone]
odor [1]: dry herbaceous and woody odor

Cc1ccccc1C(=O)C(C)C [2,2′-dimethylpropiophenone (ortho), 2,2′-dimethylpropiophenone]
odor (Odor description): stronger than meta, rosy, powdery, dusty

C=C(C)[C@H]1CC=C(C)C(=O)C1 [D-carvone, nat., D-carvone]
Odor assessment of hair strand after shampoo wash ([2]; Damp hair): 2.3
Odor assessment of hair strand after shampoo wash ([2]; Dry hair): 0.9
Impact (from the fragrance strip) [3]: 5
Odor threshold value (from diethyl phthalate) [4]: 4
Intensity (on air) [5]: 6

CC(C)=CC1CC(C)CCO1 (stereo not drawn) [rose oxide]
odor [1]: floral-geranium-like, green, hard
